Measured values taken from patent publication US20250163183A1.
Substitutions are numbered along the chain they refer to. These are yes or no findings as the source states them, for the method shown. Some results given as binding are weak or reduced against the parent protein; the word gives no strength.

Protein sequences, listed by entry. Tags and fused reporters are not part of them. Lines headed by an entry give the natural chain unless they say otherwise; changes in a name come on top.
UniProt P04070: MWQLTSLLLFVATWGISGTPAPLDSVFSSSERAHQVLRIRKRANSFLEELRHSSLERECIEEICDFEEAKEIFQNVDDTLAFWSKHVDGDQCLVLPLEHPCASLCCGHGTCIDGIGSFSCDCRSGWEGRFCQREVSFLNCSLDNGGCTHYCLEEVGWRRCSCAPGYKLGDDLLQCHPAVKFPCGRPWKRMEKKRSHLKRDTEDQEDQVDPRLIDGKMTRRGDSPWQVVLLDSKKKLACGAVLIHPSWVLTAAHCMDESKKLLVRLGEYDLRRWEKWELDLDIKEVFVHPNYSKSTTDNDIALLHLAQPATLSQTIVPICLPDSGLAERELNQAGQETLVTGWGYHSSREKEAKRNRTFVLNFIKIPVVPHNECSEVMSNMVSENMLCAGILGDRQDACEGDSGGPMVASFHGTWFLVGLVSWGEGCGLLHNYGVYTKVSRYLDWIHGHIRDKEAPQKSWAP

B1: SR16983-R3P2G08 (VHH)
VHH: QLQLVESGGGLVQAGGSMRLSCTASGSTVRVTAGGWYRQAPGNERELVADIDNGGSTTYADSVKGRFTISRDNAKNAVDLQMNSLKPEDTAVYRCFVIAIPDSAPRPRAYWGQGTQVTVSS
B2: SR16983-R3-P4-G01 (VHH)
VHH: QLQLVESGGGLVQAGGSLRLSCAASGRTFVGSYVMGWFRQAPGKEREFVAASSRSTGNTVYLDSVKGRFTISRDDAKNMLYLQMNSLKPEDTAVYYCATRASINYNYANWPYWGQGTQVTVSS
B3: SR16983-R2-P4-G01 (VHH)
VHH: QLQLVESGGGLVQAGGSLRLSCAASGRTVGSYVMGWFRQAPGKEREFLAANSRSTGNTVYADSVKGRFTISRDDAKNTLYLQMNSLKPEDTAVYYCATRASINYNYANWPYWGQGTQVNVSS
B4: SR16983-R3P2G9 (VHH)
VHH: B3 VHH with L2V, A14P, V29F, L48V, N51A, A61P, T98A, N119T
B5: SR16983-R2-P4-B05 (VHH)
VHH: B3 VHH with L2V, T28V, V29F, S31T, L48V, N51F, N57H, T58I, V59T, N119T
B6: SR16983-R4-P1-C07 (VHH)
VHH: EVQLVESGGGVVQAGGSLRLSCVLSGNTFGDNVITWYRQPPGKQREFIAMITKSGSTRYADSVKGRFTMSRDTAKNTAFLQMSSLKVEDTAVYYCWTAIAGQGEYWGQGTQVTVSS
B7: SR16983-R3-P5-C03 (VHH)
VHH: QLQLVESGGGLVQAGGSLRLSCAASGTTFSFVYMGWYRQAPGNQRELVARLSSDGSTNYADSVKGRFLISGDNAKNTVYLQMNSLKPEDTARYYCFYNGHLNKWGQGTQVTVSS
B8: SR16983-R4-P1-A12 (VHH)
VHH: QLQLVESGGGLVQAGGSLRLSCAASGTTSSLNLMGWYRQAPGKKRESVAHMTSDGDTDYVDSVKGRFTISRDNSKNTVYLQMNNVKPEDTAVYYCYANPFLGSWSNYWGQGTQVTVSS
B9: SR16983-R3-P3-A12 (VHH)
VHH: QLQLVESGGGLVQPGGSLRLSCAVSGFTLDDYAIGWFRQAPGKEREGVSSIATSDGSTYYADSVKGRFTISSDNAKNTVYLQMNSLKPEDTAVYYCARGGLLLPRPELYEYWGQGTQVTVSS
B10: SR16983-R3-P4-A05 (VHH)
VHH: B9 VHH with P14A, V24A, S50C, N74A, N84D, R105K, Y109F, E110D, Y111G, S122T
B11: SR16983-R3P2H05 (VHH)
VHH: QLQLVESGGGLVQPGGSLRLACAASGFSFDDYAIGWFRQAPGKEREGVSCITSDGSTYYADSVKGRFTISSDYAKNTVHLQMNSLKPEDTAVYYCARGGLLLPKPELFDDWGQGTQVTVSS
B12: SR16983-R2-P4-G06 (VHH)
VHH: EVQLVESGGGLVQAGGSLRLSCTTSGSTFSITAGGWYRQAPGKQRELVADIANDGSTTYADSVKGRFTISRDNAKNTVELQMSSLKLEDTAVYLCFVVGISDSTPRPRAYWGQGTQVTVSS
B13: SR16983-R2-P5-H07 (VHH)
VHH: B7 VHH with L2V, L51I, A60S, D72A
B14: SR16983-R3-P3-C06 (VHH)
VHH: QLQLVESGGGLVQPGGSLRLSCAASGFTFSTKWMYWVRQGPGKGLEWVSTIDASGGSTYYADSVKGRFTISRDNTEKKVYLQMNSLESADTAVYYCARSAGGQFRGRGTQVTVSS
B15: SR16983-R3-P3-F01 (VHH)
VHH: EVQLVESGGGLVQAGDSLRLSCARSGLTASTYAMAWFRQAPGKEREFVSVIDWKGDTTYANSVKGRFTISRDNGKNTVYLQMNSLQPEDTALYYCAARGSPAYVARLYAYWGRGTQVTVSS
B16: SR16983-R3-P3-G05 (VHH)
VHH: B9 VHH with P14A, V24A, S50C, T53S, S72T, R105K, Y109F, E110D, Y111S
B17: SR16983-R2-P2-A08 (VHH)
VHH: QVQLVESGGGVVQAGGSLRLSCAASGLTSSTYVMAWFRQAPGKEREFVSVIDSRGDTTYAKSVKGRFSISRDNGKNAVYLQMNSLQPEDTALYYCAARASASYVARMYAYWGRGTQVTVSS
B18: SR16983-R3P2D09 (VHH)
VHH: B3 VHH with L2V, V33A, N51F, T98A, N119T
B19: SR16983-R3-P2-G05 (VHH)
VHH: B7 VHH with A14T, E46D, L51I, L68T, D72G
B20: SR16983-R3-P4-H10 (VHH)
VHH: B17 VHH with V11L, K61N, S68T, I69T, N73F, A77T, A101P, S102A, M107L
B21: SR16983-R3P2A07 (VHH)
VHH: QVQLVESGGRLVQAGGSLRLSCAASGRTSSNYAMGWFRQAPGKERRFVAGISRDGADTSYADSVKGRFTILRDRSKNTADLQMNSLKPEDTAIYYCAAARGIYGEISRYTGDYESWGQGTQVTVSS
B22: SR16983-R3-P2-A08 (VHH)
VHH: QVQLVESGGGLVQAGGSLRLSCAASGRTSSNYNMGWFRQAPGKEREFVAAIPWTGSTTYYADPVKGRFTISRDSTKNTGDLQMNSLKPEDTAVYYCALGRRENYYALLQQRGYDYWGQGTQVTVSS
B23: SR16983-R3-P5-A11 (VHH)
VHH: B7 VHH with L2V, R19G, E46D, L51I, L68T, S84N, L101V

The binders below were run against human activated protein C (APC) (human) (UniProt P04070) (assay: ELISA).

binding, binds:
B1
B2
B3
B4
B5
B6
B7
B8
B9
B10
B11
B12
B13
B14
B15
B16
B17
B18
B19
B20
B21
B22
B23

What follows are binders tested against human activated protein C (APC) (human) (UniProt P04070) (assay: ELISA screen, APC-coated wells, OD450, n=2 [Continued]).

binding, binds:
B1
B2
B3
B4
B5
B6
B7
B8
B9
B10
B11
B12
B13
B14
B15
B16
B17
B18
B19
B20
B21
